# Laboratory results taken from publication PMC10036118.
# By UniProt entry, the sequences of proteins in these tests, tags left out. Where a name states a change or a piece, a line headed by the entry shows the natural chain unless it says otherwise.
# UniProt Q9M0L0: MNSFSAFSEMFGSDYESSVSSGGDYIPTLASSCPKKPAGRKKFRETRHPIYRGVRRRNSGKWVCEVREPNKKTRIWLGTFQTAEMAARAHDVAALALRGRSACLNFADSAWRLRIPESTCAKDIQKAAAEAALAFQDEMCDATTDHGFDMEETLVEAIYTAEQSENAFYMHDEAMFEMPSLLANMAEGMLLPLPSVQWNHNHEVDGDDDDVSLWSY
# Biological target: MBP-CBF3 (Arabidopsis thaliana) (UniProt Q9M0L0)
# Test: EMSA
# Conditions: 5 uM protein, 100 nM probe, EMSA: 10 mM Tris-HCl pH 7.5, 1 mM EDTA, 50 mM NaCl, 5% glycerol, 5 mM DTT, room temperature, 100 nM Cy5 probe, 100-fold excess competitor, recombinant protein, label: Cy5 (5' on printed strand)
row,Sequence,binding result
1,CCGAATGTGACCGACATAGGCCCAA (double strand) [DRE1 probe],binds
2,TATGGAAGAGGTCGGTCACGTTAAC (double strand) [DRE2 probe],binds

# Biological target: MBP-CBF3 (Arabidopsis thaliana) (UniProt Q9M0L0)
# Test: competition with a labelled probe
# Conditions: 100-fold excess competitor, DRE1 probe, EMSA: 10 mM Tris-HCl pH 7.5, 1 mM EDTA, 50 mM NaCl, 5% glycerol, 5 mM DTT, room temperature, 5 uM protein, 100 nM Cy5 probe, recombinant protein
row,Sequence,binding result
1,AATATCTGGCCCGACGAAGAAAAAG (double strand) [DREb],no binding
2,ACAAAAGTAGCCGACAAGTCACCTT (double strand) [DREc],binds
3,GGACAAATCTCCGACAATCTTCCGG (double strand) [DREd],no binding
4,TTGAACTCTTCCGACTTCTCAAAAC (double strand) [DREa],no binding

# Same assay, conditions: 100-fold excess competitor, EMSA: 10 mM Tris-HCl pH 7.5, 1 mM EDTA, 50 mM NaCl, 5% glycerol, 5 mM DTT, room temperature, 5 uM protein, 100 nM Cy5 probe, recombinant protein
row,Sequence,binding result
1,TATGGAAGAGGTCGGTCACGTTAAC (double strand) [DRE2 competitor],binds
2,CCGAATGTGTGAACCCAAGGCCCAA (double strand) [DRE1m],no binding
3,TATGGAAGCGAGGTGTCACGTTAAC (double strand) [DRE2m],no binding
4,CCGAATGTGACCGACATAGGCCCAA (double strand) [DRE1 competitor],binds

# Construct, isoform or probe ends are uncertain for at least one entry. For some of these results: Negatives hold for the conditions tested.
